Assay: Bioinformatic analysis of Oncolines IC50 values (genomics, gene expression, dependency, reference agents)
Parameters: species or system human

Which “10log IC50 ratio, TP53 missense position vs other positions” value (from here on “10log IC50 ratio, TP53 missense position”) (K132) does the source give for `O=C1CCC(N2Cc3cc(Nc4noc5ccccc45)ccc3C2=O)C(=O)N1` (stereo not drawn) [SJ3149] here?
Its value is -3.41.

What about the “10log IC50 ratio, TP53 missense position” value (P309) of the same compound?
Its value is 0.63.

And the “10log IC50 ratio, TP53 missense position” value (R175)?
The value was -0.58.

What about the “10log IC50 ratio, TP53 missense position” value (R248) of the same compound?
The value was 0.40.

What about the “10log IC50 ratio, TP53 missense position” value (R273) of the same compound?
The value was 0.71.

And the “10log IC50 ratio, TP53 missense position” value (R280)?
The value was 0.60.

And the “10log IC50 ratio altered/wild-type” value (gene ABL-driven)?
Its value is -1.62.

And the “10log IC50 ratio altered/wild-type” value (gene APC)?
Its value is 0.40.

What about the “10log IC50 ratio altered/wild-type” value (gene ARID1A) of the same compound?
The value was 0.14.

And the “10log IC50 ratio altered/wild-type” value (gene ATM)?
The value was -0.71.

And the “10log IC50 ratio altered/wild-type” value (gene BRAF)?
Its value is 0.28.

And the “10log IC50 ratio altered/wild-type” value (gene BRCA2)?
The value was -0.50.

What about the “10log IC50 ratio altered/wild-type” value (gene CCND1) of the same compound?
Its value is 1.06.

And the “10log IC50 ratio altered/wild-type” value (gene CCNE1)?
The value was 0.0542.

What about the “10log IC50 ratio altered/wild-type” value (gene CDKN2A) of the same compound?
The value was 0.00723.

And the “10log IC50 ratio altered/wild-type” value (gene CHD4)?
The value was 0.09.

What about the “10log IC50 ratio altered/wild-type” value (gene CREBBP) of the same compound?
The value was 0.29.

And the “10log IC50 ratio altered/wild-type” value (gene CTNNB1)?
Its value is -1.05.

And the “10log IC50 ratio altered/wild-type” value (gene EGFR)?
Its value is -1.22.

And the “10log IC50 ratio altered/wild-type” value (gene EP300)?
The value was 0.09.

What about the “10log IC50 ratio altered/wild-type” value (gene ERBB2) of the same compound?
Its value is 1.04.

What about the “10log IC50 ratio altered/wild-type” value (gene FAT1) of the same compound?
The value was 0.68.

What about the “10log IC50 ratio altered/wild-type” value (gene FBXW7) of the same compound?
The value was -0.10.

What about the “10log IC50 ratio altered/wild-type” value (gene KRAS) of the same compound?
The value was 0.31.

And the “10log IC50 ratio altered/wild-type” value (gene LRP1B)?
Its value is 1.11.

And the “10log IC50 ratio altered/wild-type” value (gene MYC)?
The value was 1.14.

What about the “10log IC50 ratio altered/wild-type” value (gene NCOR1) of the same compound?
Its value is 0.55.

And the “10log IC50 ratio altered/wild-type” value (gene NF1)?
The value was 0.16.

What about the “10log IC50 ratio altered/wild-type” value (gene NOTCH1) of the same compound?
The value was -0.22.

What about the “10log IC50 ratio altered/wild-type” value (gene NRAS) of the same compound?
The value was -0.14.

What about the “10log IC50 ratio altered/wild-type” value (gene NSD1) of the same compound?
Its value is 0.67.

What about the “10log IC50 ratio altered/wild-type” value (gene PBRM1) of the same compound?
Its value is -0.32.

And the “10log IC50 ratio altered/wild-type” value (gene PIK3CA)?
The value was 0.37.

What about the “10log IC50 ratio altered/wild-type” value (gene PIK3R1) of the same compound?
The value was 0.0148.

And the “10log IC50 ratio altered/wild-type” value (gene PTEN)?
Its value is 0.28.

And the “10log IC50 ratio altered/wild-type” value (gene RB1)?
The value was -0.69.

And the “10log IC50 ratio altered/wild-type” value (gene SETD2)?
Its value is -0.58.

What about the “10log IC50 ratio altered/wild-type” value (gene SMAD4) of the same compound?
Its value is 0.90.

And the “10log IC50 ratio altered/wild-type” value (gene SMARCA4)?
Its value is -0.67.

What about the “10log IC50 ratio altered/wild-type” value (gene SPEN) of the same compound?
The value was -1.70.

What about the “10log IC50 ratio altered/wild-type” value (gene STK11) of the same compound?
Its value is 0.35.

What about the “10log IC50 ratio altered/wild-type” value (gene TP53) of the same compound?
Its value is 1.33.

And the “10log IC50 ratio altered/wild-type” value (gene XIRP2)?
The value was 0.69.

What about the “10log IC50 ratio altered/wild-type” value (gene ZFHX3) of the same compound?
Its value is -0.56.

What about the “Average IC50 in TP53-altered vs TP53 wild-type cell lines” value (higher in TP53-altered) of the same compound?
Its value is 21 fold.

Reference: PMC10791743, “Selective CK1α degraders exert antiproliferative activity against a broad range of human cancer cell lines” (Nature Communications, 2024)
